Where two headings read alike, the source gives them in different places. The match of structure and compound is tentative.
Tests used:
[1] = target: T1, MAO-B (Homo sapiens, UniProt P27338); conditions: cited from earlier work; for pIC50: MAO-B; for IC50: read-out: MAO-B inhibition IC50
[2] = target: T1, MAO-B; assay: MAO-B inhibition of prior 3-phenylcoumarins (literature data); type: biochemical; conditions: LiPE = pIC50 - QPlogPo/w, literature IC50
[3] = from literature IC50 ref Viña et al., 2012a
[4] = prior 3-phenylcoumarins ref Viña et al., 2012a
[5] = from literature IC50 ref Santana et al., 2010
[6] = prior 3-phenylcoumarins ref Santana et al., 2010

The chains behind the UniProt entries cited, without tags or fusion partners.
UniProt P27338, whole entry: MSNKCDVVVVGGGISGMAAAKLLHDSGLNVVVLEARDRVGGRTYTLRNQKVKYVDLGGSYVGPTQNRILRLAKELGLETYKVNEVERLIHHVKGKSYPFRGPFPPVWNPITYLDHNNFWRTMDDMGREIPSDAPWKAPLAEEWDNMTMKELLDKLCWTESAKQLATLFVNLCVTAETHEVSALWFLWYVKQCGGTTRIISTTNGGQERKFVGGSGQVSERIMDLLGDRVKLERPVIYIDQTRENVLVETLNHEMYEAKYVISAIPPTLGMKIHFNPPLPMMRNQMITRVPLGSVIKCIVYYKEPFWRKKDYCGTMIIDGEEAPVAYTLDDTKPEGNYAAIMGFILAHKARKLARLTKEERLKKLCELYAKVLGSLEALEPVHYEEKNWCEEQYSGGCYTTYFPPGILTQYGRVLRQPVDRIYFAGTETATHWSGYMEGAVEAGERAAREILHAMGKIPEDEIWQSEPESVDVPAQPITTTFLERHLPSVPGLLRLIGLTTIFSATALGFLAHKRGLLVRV

Compound | LiPE [2] | pIC50 [1, 3] | IC50 [1, 4] [nM] | pIC50 [1, 5] | IC50 [1, 6] [nM]
Cc1ccc(C[C@H](N)C(=O)O)cc1 | 3.64 | 7.70 | 20 | – | –
COC(=O)C1CCN(C(=O)OC(C)(C)C)C1 (stereo not shown) | 5.00 | 8.52 | 3 | – | –
Cn1ncc(C(=O)O)c1C(F)(F)F | 3.67 | 6.82 | 150 | – | –
COC(=O)CC(F)(F)F | 3.01 | 6.68 | 210 | – | –
O[C@@H](c1cc(C(F)(F)F)nc2c(C(F)(F)F)cccc12)[C@H]1CCCCN1 | 5.35 | – | – | 9.00 | 1
COc1c(O)cc2oc3cc(O)c(CC=C(C)C)c(O)c3c(=O)c2c1CC=C(C)C | 2.88 | 6.82 | 150 | – | –
COc1ccc(CNc2nc(NCc3ccc(OC)cc3)c3ncn(C(C)C)c3n2)cc1 | 4.97 | – | – | 8.70 | 2
O=C(NCCN1CCOCC1)c1ccc(Cl)cc1 | 4.53 | – | – | – | –
COC(=O)c1ccc(O)c(O)c1C | 3.60 | 7.11 | 78 | – | –
COC(=O)N1C(=O)C=CC1=O | 3.21 | – | – | 6.32 | 480
COC(=O)Nc1nc2ccc(C(=O)c3ccccc3)cc2[nH]1 | 3.33 | – | – | 6.36 | 440

Second part, led by results:

LiPE [2] | Compound | pIC50 [1, 3] | IC50 [1, 4] [nM] | pIC50 [1, 5] | IC50 [1, 6] [nM]
2.35 | CCCc1nn(C)c(C(N)=O)c1[N+](=O)[O-] | 5.97 | 1060 | – | –
3.74 | COc1ccncc1[N+](=O)[O-] | – | – | 6.68 | 210
4.79 | COc1ccc(C(=O)O)c2ccccc12 | 8.52 | 3 | – | –
3.18 | Cc1ccncc1[N+](=O)[O-] | – | – | 6.19 | 640
4.49 | COC(=O)[C@@H](O)c1ccccc1Cl | – | – | 8.22 | 6

— article PMC5840146, “Structure-Activity Relationship Analysis of 3-Phenylcoumarin-Based Monoamine Oxidase B Inhibitors” (Frontiers in Chemistry, 2018)
